Test system: primary human keratinocytes (PHK)
Test: Transepithelial electric resistance (TEER) in cultured primary human keratinocytes
Format: cell-based
Conditions: antagonist with histamine, Cetirizine 10 μM, JNJ7777120 10 μM, Cimetidine 100 μM, n=4, FIGS. 4A, 5A
Source text: Selective antagonists were used for each receptor: […] Selective antagonists were used for each receptor: […]

O=C(O)COCCN1CCN(C(c2ccccc2)c2ccc(Cl)cc2)CC1 (stereo not shown) [Cetirizine]
Block of histamine-mediated TEER reduction (AUC): blocks
